According to paper PMC7788848:
These are yes or no findings as the source states them, for the method shown. In cells and extracts the contact can be indirect. Some entries that bind do so weakly or less than the wild type.

By UniProt entry, the sequences of proteins in these tests, tags left out. Residues count along the entry.
UniProt P04785, residues 20-509: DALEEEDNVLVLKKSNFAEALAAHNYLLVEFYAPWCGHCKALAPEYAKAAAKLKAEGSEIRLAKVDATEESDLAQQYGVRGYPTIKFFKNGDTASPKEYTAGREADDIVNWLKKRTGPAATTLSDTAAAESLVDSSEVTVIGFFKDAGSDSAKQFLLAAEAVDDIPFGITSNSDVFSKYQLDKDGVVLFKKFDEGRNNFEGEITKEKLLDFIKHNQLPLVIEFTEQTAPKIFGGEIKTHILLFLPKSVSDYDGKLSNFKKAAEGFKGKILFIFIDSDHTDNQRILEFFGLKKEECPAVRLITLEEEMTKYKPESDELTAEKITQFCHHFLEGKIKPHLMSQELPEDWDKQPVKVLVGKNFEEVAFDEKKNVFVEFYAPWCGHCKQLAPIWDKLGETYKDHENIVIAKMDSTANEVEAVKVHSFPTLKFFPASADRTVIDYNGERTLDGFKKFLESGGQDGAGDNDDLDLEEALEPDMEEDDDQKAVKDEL

Biological target: Protein disulfide isomerase (rat (endogenous in hippocampus)) (UniProt P04785)
Test: co-IP; rat hippocampal tissue lysed in RIPA buffer with protease and phosphatase inhibitors and 1 mM sodium orthovanadate; 150 ug protein precipitated with the PDI antibody (10 ug/ml) and protein G sepharose at 4 °C overnight; Western blot for P2X7R; animals: control or 3 days after pilocarpine-induced SE, infused with vehicle or L-NAME, control siRNA or PDI siRNA

binding: binds
B1: P2X7 receptor (receptor, UniProt Q64663 1-595)
chain: MPACCSWNDVFQYETNKVTRIQSVNYGTIKWILHMTVFSYVSFALMSDKLYQRKEPLISSVHTKVKGVAEVTENVTEGGVTKLVHGIFDTADYTLPLQGNSFFVMTNYLKSEGQEQKLCPEYPSRGKQCHSDQGCIKGWMDPQSKGIQTGRCIPYDQKRKTCEIFAWCPAEEGKEAPRPALLRSAENFTVLIKNNIDFPGHNYTTRNILPGMNISCTFHKTWNPQCPIFRLGDIFQEIGENFTEVAVQGGIMGIEIYWDCNLDSWSHRCQPKYSFRRLDDKYTNESLFPGYNFRYAKYYKENGMEKRTLIKAFGVRFDILVFGTGGKFDIIQLVVYIGSTLSYFGLATVCIDLIINTYASTCCRSRVYPSCKCCEPCAVNEYYYRKKCEPIVEPKPTLKYVSFVDEPHIWMVDQQLLGKSLQDVKGQEVPRPQTDFLELSRLSLSLHHSPPIPGQPEEMQLLQIEAVPRSRDSPDWCQCGNCLPSQLPENRRALEELCCRRKPGQCITTSELFSKIVLSREALQLLLLYQEPLLALEGEAINSKLRHCAYRSYATWRFVSQDMADFAILPSCCRWKIRKEFPKTQGQYSGFKYPY
